Experimental data: the supplement of paper PMC10338343
± gives the standard deviation. This is a selection; strong and weak results do not stand in their true shares. Many of these values have a large error.

system: MIWI (PIWIL1) piRISC loaded with piRNA #1 (30 nt); experiment: pre-steady-state target cleavage rate (min^-1); MIWI and MILI are mouse PIWI proteins and EfPiwi is from a freshwater sponge; tags in brackets are library labels; higher = faster piRNA-guided slicing of the target; conditions: guide: piRNA #1 5'p-UGAGGUAGUAGGUUGUAUAGUAUCCAGAGG; auxiliary factor: 500 nM mouse GTSF1
In short: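 Cleave-'n-Seq: 1 nM active affinity-purified piRISC with one synthetic guide and 0.1 nM transcribed, DNA-blocked target RNA library were mixed, with or without 500 nM GTSF1 partner protein, in HEPES–potassium acetate buffer at 33 °C for 0–8 or 0–960 min. Uncleaved targets were sequenced and normalised to depth and to weakly complementary targets, three trials were pooled, and k3 was capped at 0.0001 min^-1. The pre-steady-state cleavage rate was fitted […].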

Sequence | pre-steady-state target cleavage rate
GCUCGGGAUACUAUACAACCUACUACCUCA | 1.5 ± 0.071
GGAGACCUUACUAUACAACCUACUCCUCA | 0.000829 ± 0.0063
GGAGACCUAUGAAUACAACCUACUACGCUCA | 0.00203 ± 0.0036
CCUCUGGAAACUAUACAACCUACUACCACA | 2.19 ± 0.26
GGAGACCUAUGAAUACAAGCUACUACCUCA | 0.00163 ± 0.0034
GGUCUGGAAUACUAUACAACCUACUACCUCA | 1.83 ± 0.11
CCUCUGGAAACUAUUCAACCUACUACCUCA | 2.02 ± 0.13
CCUCUGGAUACUAUACUUGGAUGAUGGAGA [g15:g30:cont:t1A] | 0.000927 ± 0.0089
GCUCUGGUUACUAUUCAACCUACUACCUCA | 1.88 ± 0.12
GGACUGGAUGCUAUACAACCUACUACCUCA | 1.82 ± 0.15
CCUCUGGAUACUAUACAACCUACUACCCUCA | 1.38 ± 0.097
GGAGACCUAUGUUUACAACCUACUAGCUCA | 0.00217 ± 0.0037
GGAGACCUAUGUAUUCAACCUUCUACCUCA | 0.000514 ± 0.0043
GGUCUGGAUACUAUAGAACCUACUACCACA | 0.0228 ± 0.0058
CCUCUGGAUACUAUGCAACCUACUACCUCA | 2.09 ± 0.13
GGUCUGGUACUAUACAACCUACUACCUCA | 1.73 ± 0.11
GCUCUGGAUACUAUACAACGCUACUACCUCA | 0.00199 ± 0.0061
GGAGACCUAUGAUUACAACCUACUACACUCA | 0.00214 ± 0.0034
GGUCUGGAUACUAUACAACCUAUACCUCA | 0.00158 ± 0.0035
GGAGACCUUACUAUUGUACCUACUACCUCA | 0.00136 ± 0.0041
GGAGACCUAUGAUAACAACCUACUACCUACA | 0.000617 ± 0.0053
GGACUGGAUACUAUACAACCUACUAGCACA | 0.000422 ± 0.015
GGAGUGGAUACUAUCACAACCUACUACCUCA | 1.49 ± 0.12
GGUCUGCUUACUAUACAACCUACUACCUCA | 1.74 ± 0.12

Retrieved one by one from the list above (2):
Sequence | pre-steady-state target cleavage rate
GGAGACCUUACUAUUGUACCUACUACCUCA | 0.00136 ± 0.0041
GCUCGGGAUACUAUACAACCUACUACCUCA | 1.5 ± 0.071
